The assay concerns the target T1, EGFP:DENND6A (human (cDNA of HeLa, HCT116 and MCF7 cells)) (UniProt Q8IWF6).
T1 sequence: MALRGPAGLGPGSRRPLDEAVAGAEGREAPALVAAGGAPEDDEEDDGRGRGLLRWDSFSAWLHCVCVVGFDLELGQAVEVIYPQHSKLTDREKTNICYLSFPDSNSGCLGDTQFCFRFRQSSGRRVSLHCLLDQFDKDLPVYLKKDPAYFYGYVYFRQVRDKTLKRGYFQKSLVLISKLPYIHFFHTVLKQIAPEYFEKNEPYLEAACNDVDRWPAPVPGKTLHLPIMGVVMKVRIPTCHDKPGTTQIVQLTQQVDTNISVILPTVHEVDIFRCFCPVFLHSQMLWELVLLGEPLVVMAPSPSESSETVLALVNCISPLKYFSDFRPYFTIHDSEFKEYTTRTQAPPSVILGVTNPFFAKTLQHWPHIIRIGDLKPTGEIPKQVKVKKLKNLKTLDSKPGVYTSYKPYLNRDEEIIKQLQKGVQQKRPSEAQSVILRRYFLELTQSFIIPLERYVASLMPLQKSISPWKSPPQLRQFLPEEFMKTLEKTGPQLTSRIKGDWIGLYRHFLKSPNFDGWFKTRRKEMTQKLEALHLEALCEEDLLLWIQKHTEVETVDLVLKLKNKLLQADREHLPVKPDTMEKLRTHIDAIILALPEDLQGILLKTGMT
In words: co-IP.

Amino acid sequences for entries named in this document (tags omitted). A change or cut given only in a name is not applied to a line headed by its entry.
UniProt P57735: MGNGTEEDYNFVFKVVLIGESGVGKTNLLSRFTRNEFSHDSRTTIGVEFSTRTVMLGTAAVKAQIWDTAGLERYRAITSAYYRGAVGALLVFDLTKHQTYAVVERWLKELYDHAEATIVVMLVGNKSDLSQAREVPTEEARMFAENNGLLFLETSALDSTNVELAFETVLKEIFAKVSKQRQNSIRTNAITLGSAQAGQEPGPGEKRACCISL

These are yes or no findings as the source states them, for the method shown. Binding seen in cells or lysates may run through a third protein. Binding can be weak; no strength is given. Tags and fused reporters may be left off the sequences shown.

In the case of HA:RAB25 Q71L (from UniProt P57735), the binding entry is given as “binds”.

For HA:RAB25-T26NQ71L (from UniProt P57735), the binding result is on record as “no binding”.

For the origin of these results see article doi:10.1101/2024.11.05.621850.
